Measured values: patent US20250283871A1, “COMPOSITIONS AND METHODS FOR MODULATING THE INTERACTION BETWEEN SS18-SSX FUSION ONCOPROTEIN AND NUCLEOSOMES” (Dana-Farber Cancer Institute, Inc., priority 2020, published 2025)

B1: ESF1 (protein, UniProt Q9H501 2-851, looked up)
ESF1 homolog: SSKQEIMSDQRFRRVAKDPRFWEMPEKDRKVKIDKRFRAMFHDKKFKLNYAVDKRGRPISHSTTEDLKRFYDLSDSDSNLSGEDSKALSQKKIKKKKTQTKKEIDSKNLVEKKKETKKANHKGSENKTDLDNSIGIKKMKTSCKFKIDSNISPKKDSKEFTQKNKKEKKNIVQHTTDSSLEEKQRTLDSGTSEIVKSPRIECSKTRREMQSVVQLIMTRDSDGYENSTDGEMCDKDALEEDSESVSEIGSDEESENEITSVGRASGDDDGSEDDEEEDEDEEEDEDEDSEDDDKSDSGPDLARGKGNIETSSEDEDDTADLFPEESGFEHAWRELDKDAPRADEITRRLAVCNMDWDRLKAKDLLALFNSFKPKGGVIFSVKIYPSEFGKERMKEEQVQGPVELLSIPEDAPEKDWTSREKLRDYQFKRLKYYYAVVDCDSPETASKIYEDCDGLEFESSCSFIDLRFIPDDITFDDEPKDVASEVNLTAYKPKYFTSAAMGTSTVEITWDETDHERITMLNRKFKKEELLDMDFQAYLASSSEDEEEIEEELQGDDGVNVEEDGKTKKSQKDDEEQIAKYRQLLQVIQEKEKKGKENDMEMEIKWVPGLKESAEEMVKNKLEGKDKLTPWEQFLEKKKEKKRLKRKQKALAEEASEEELPSDVDLNDPYFAEEVKQIGINKKSVKSAKDGTSPEEEIEIERQKAEMALLMMDEDEDSKKHFNYNKIVEHQNLSKKKKKQLMKKKELIEDDFEVNVNDARFQAMYTSHLFNLDPSDPNFKKTKAMEKILEEKARQRERKEQELTQAIKKKESEIEKESQRKSIDPALSMLIKSIKTKTEQFQARKKQKVK
B2: RNF2 (protein, UniProt Q99496 2-336, looked up)
E3 ubiquitin-protein ligase …: SQAVQTNGTQPLSKTWELSLYELQRTPQEAITDGLEIVVSPRSLHSELMCPICLDMLKNTMTTKECLHRFCADCIITALRSGNKECPTCRKKLVSKRSLRPDPNFDALISKIYPSRDEYEAHQERVLARINKHNNQQALSHSIEEGLKIQAMNRLQRGKKQQIENGSGAEDNGDSSHCSNASTHSNQEAGPSNKRTKTSDDSGLELDNNNAAMAIDPVMDGASEIELVFRPHPTLMEKDDSAQTRYIKTSGNATVDHLSKYLAVRLALEELRSKGESNQMNLDTASEKQYTIYIATASGQFTVLNGSFSLELVSEKYWKVNKPMELYYAPTKEHK
B3: WDR36 (protein, UniProt Q8NI36 1-895, looked up)
WD repeat-containing protein …: MERASERRTASALFAGFRALGLFSNDIPHVVRFSALKRRFYVTTCVGKSFHTYDVQKLSLVAVSNSVPQDICCMAADGRLVFAAYGNVFSAFARNKEIVHTFKGHKAEIHFLQPFGDHIISVDTDGILIIWHIYSEEEYLQLTFDKSVFKISAILHPSTYLNKILLGSEQGSLQLWNVKSNKLLYTFPGWKVGVTALQQAPAVDVVAIGLMSGQVIIHNIKFNETLMKFRQDWGPITSISFRTDGHPVMAAGSPCGHIGLWDLEDKKLINQMRNAHSTAIAGLTFLHREPLLVTNGADNALRIWIFDGPTGEGRLLRFRMGHSAPLTNIRYYGQNGQQILSASQDGTLQSFSTVHEKFNKSLGHGLINKKRVKRKGLQNTMSVRLPPITKFAAEEARESDWDGIIACHQGKLSCSTWNYQKSTIGAYFLKPKELKKDDITATAVDITSCGNFAVIGLSSGTVDVYNMQSGIHRGSFGKDQAHKGSVRGVAVDGLNQLTVTTGSEGLLKFWNFKNKILIHSVSLSSSPNIMLLHRDSGILGLALDDFSISVLDIETRKIVREFSGHQGQINDMAFSPDGRWLISAAMDCSIRTWDLPSGCLIDCFLLDSAPLNVSMSPTGDFLATSHVDHLGIYLWSNISLYSVVSLRPLPADYVPSIVMLPGTCQTQDVEVSEETVEPSDELIEYDSPEQLNEQLVTLSLLPESRWKNLLNLDVIKKKNKPKEPPKVPKSAPFFIPTIPGLVPRYAAPEQNNDPQQSKVVNLGVLAQKSDFCLKLEEGLVNNKYDTALNLLKESGPSGIETELRSLSPDCGGSIEVMQSFLKMIGMMLDRKRDFELAQAYLALFLKLHLKMLPSEPVLLEEITNLSSQVEENWTHLQSLFNQSMCILNYLKSALL
B4: RBM15 (protein, UniProt Q96T37 1-977, looked up)
RNA-binding protein 15: MRTAGRDPVPRRSPRWRRAVPLCETSAGRRVTQLRGDDLRRPATMKGKERSPVKAKRSRGGEDSTSRGERSKKLGGSGGSNGSSSGKTDSGGGSRRSLHLDKSSSRGGSREYDTGGGSSSSRLHSYSSPSTKNSSGGGESRSSSRGGGGESRSSGAASSAPGGGDGAEYKTLKISELGSQLSDEAVEDGLFHEFKRFGDVSVKISHLSGSGSGDERVAFVNFRRPEDARAAKHARGRLVLYDRPLKIEAVYVSRRRSRSPLDKDTYPPSASVVGASVGGHRHPPGGGGGQRSLSPGGAALGYRDYRLQQLALGRLPPPPPPPLPRDLERERDYPFYERVRPAYSLEPRVGAGAGAAPFREVDEISPEDDQRANRTLFLGNLDITVTESDLRRAFDRFGVITEVDIKRPSRGQTSTYGFLKFENLDMSHRAKLAMSGKIIIRNPIKIGYGKATPTTRLWVGGLGPWVPLAALAREFDRFGTIRTIDYRKGDSWAYIQYESLDAAHAAWTHMRGFPLGGPDRRLRVDFADTEHRYQQQYLQPLPLTHYELVTDAFGHRAPDPLRGARDRTPPLLYRDRDRDLYPDSDWVPPPPPVRERSTRTAATSVPAYEPLDSLDRRRDGWSLDRDRGDRDLPSSRDQPRKRRLPEESGGRHLDRSPESDRPRKRHCAPSPDRSPELSSSRDRYNSDNDRSSRLLLERPSPIRDRRGSLEKSQGDKRDRKNSASAERDRKHRTTAPTEGKSPLKKEDRSDGSAPSTSTASSKLKSPSQKQDGGTAPVASASPKLCLAWQGMLLLKNSNFPSNMHLLQGDLQVASSLLVEGSTGGKVAQLKITQRLRLDQPKLDEVTRRIKVAGPNGYAILLAVPGSSDSRSSSSSAASDTATSTQRPLRNLVSYLKQKQAAGVISLPVGGNKDKENTGVLHAFPPCEFSQQFLDSPAKALAKSEEDYLVMIIVRGFGFQIGVRYENKKRENLALTLL
B5: MBD1 (protein, UniProt Q9UIS9 1-605, looked up)
Methyl-CpG-binding domain …: MAEDWLDCPALGPGWKRREVFRKSGATCGRSDTYYQSPTGDRIRSKVELTRYLGPACDLTLFDFKQGILCYPAPKAHPVAVASKKRKKPSRPAKTRKRQVGPQSGEVRKEAPRDETKADTDTAPASFPAPGCCENCGISFSGDGTQRQRLKTLCKDCRAQRIAFNREQRMFKRVGCGECAACQVTEDCGACSTCLLQLPHDVASGLFCKCERRRCLRIVERSRGCGVCRGCQTQEDCGHCPICLRPPRPGLRRQWKCVQRRCLRGKHARRKGGCDSKMAARRRPGAQPLPPPPPSQSPEPTEPHPRALAPSPPAEFIYYCVDEDELQPYTNRRQNRKCGACAACLRRMDCGRCDFCCDKPKFGGSNQKRQKCRWRQCLQFAMKRLLPSVWSESEDGAGSPPPYRRRKRPSSARRHHLGPTLKPTLATRTAQPDHTQAPTKQEAGGGFVLPPPGTDLVFLREGASSPVQVPGPVAASTEALLQEAQCSGLSWVVALPQVKQEKADTQDEWTPGTAVLTSPVLVPGCPSKAVDPGLPSVKQEPPDPEEDKEENKDDSASKLAPEEEAGGAGTPVITEIFSLGGTRFRDTAVWLPRSKDLKKPGARKQ
B6: ARL6IP4 (protein, UniProt Q66PJ3 1-237, looked up)
ADP-ribosylation factor-like …: MAHVGSRKRSRSRSRSRGRGSEKRKKKSRKDTSRNCSASTSQGRKASTAPGAEASPSPCITERSKQKARRRTRSSSSSSSSSSSSSSSSSSSSSSSSSDGRKKRGKYKDKRRKKKKKRKKLKKKGKEKAEAQQVEALPGPSLDQWHRSAGEEEDGPVLTDEQKSRIQAMKPMTKEEWDARQSIIRKVVDPETGRTRLIKGDGEVLEEIVTKERHREINKQATRGDCLAFQMRAGLLP
B7: CTCF (protein, UniProt P49711 1-727, looked up)
Transcriptional repressor CTCF: MEGDAVEAIVEESETFIKGKERKTYQRRREGGQEEDACHLPQNQTDGGEVVQDVNSSVQMVMMEQLDPTLLQMKTEVMEGTVAPEAEAAVDDTQIITLQVVNMEEQPINIGELQLVQVPVPVTVPVATTSVEELQGAYENEVSKEGLAESEPMICHTLPLPEGFQVVKVGANGEVETLEQGELPPQEDPSWQKDPDYQPPAKKTKKTKKSKLRYTEEGKDVDVSVYDFEEEQQEGLLSEVNAEKVVGNMKPPKPTKIKKKGVKKTFQCELCSYTCPRRSNLDRHMKSHTDERPHKCHLCGRAFRTVTLLRNHLNTHTGTRPHKCPDCDMAFVTSGELVRHRRYKHTHEKPFKCSMCDYASVEVSKLKRHIRSHTGERPFQCSLCSYASRDTYKLKRHMRTHSGEKPYECYICHARFTQSGTMKMHILQKHTENVAKFHCPHCDTVIARKSDLGVHLRKQHSYIEQGKKCRYCDAVFHERYALIQHQKSHKNEKRFKCDQCDYACRQERHMIMHKRTHTGEKPYACSHCDKTFRQKQLLDMHFKRYHDPNFVPAAFVCSKCGKTFTRRNTMARHADNCAGPDGVEGENGGETKKSKRGRKRKMRSKKEDSSDSENAEPDLDDNEDEEEPAVEIEPEPEPQPVTPAPPPAKKRRGRPPGRTNQPKQNQPTAIIQVEDQNTGAIENIIVEVKKEPDAEPAEGEEEEAQPAATDAPNGDLTPEMILSMMDR
B8: RSRC1 (protein, UniProt Q96IZ7 1-334, looked up)
Serine/Arginine-related …: MGRRSSDTEEESRSKRKKKHRRRSSSSSSSDSRTYSRKKGGRKSRSKSRSWSRDLQPRSHSYDRRRRHRSSSSSSYGSRRKRSRSRSRGRGKSYRVQRSRSKSRTRRSRSRPRLRSHSRSSERSSHRRTRSRSRDRERRKGRDKEKREKEKDKGKDKELHNIKRGESGNIKAGLEHLPPAEQAKARLQLVLEAAAKADEALKAKERNEEEAKRRKEEDQATLVEQVKRVKEIEAIESDSFVQQTFRSSKEVKKSVEPSEVKQATSTSGPASAVADPPSTEKEIDPTSIPTAIKYQDDNSLAHPNLFIEKADAEEKWFKRLIALRQERLMGSPVA

Tested on: BAF complex subunits and histone proteins
Test: Mass spectrometry proteomics of purified HA-SS18 WT and HA-SS18-SSX1 complexes (Tables 5A-5E)
Parameters: species or system human
Conditions: for Total / Unique: HA-SS18SSX1_CHR_peptides; for Total: total peptides of the identified protein; for Unique: unique peptides of the identified protein; for Total (peptides) / Unique (peptides) / Total (total peptides) / Unique (unique peptides): HEK-293T
[1] = HA-SS18WT_CHR_peptides: HA-SS18 WT purification from nuclease-treated solubilized chromatin (CHR), label = protein identified
[2] = HA-SS18SSX1 purification, NE (soluble nuclear extract) fraction, peptides per identified protein
[3] = HA-SS18WT_NE_peptides: HA-SS18 WT complexes purified from nuclear extract (NE), label = protein identified (Gene Symbol)
[4] = HA-SS18WT_CHR_peptides: protein identified in HA-SS18 WT BAF complex purification from nuclease-treated solubilized chromatin (CHR)
[5] = HA-SS18WT_NE_peptides: proteins co-purified with HA-SS18 WT from nuclear extract (NE)

| Molecule | Total | Unique | Total (peptides) [1] | Unique (peptides) [1] | further results |
| --- | --- | --- | --- | --- | --- |
| B1 | 3 | 3 | 4 | 3 |  |
| B2 | 3 | 3 |  |  |  |
| B3 | 3 | 3 | 3 | 3 |  |
| B4 | 3 | 3 | 3 | 3 | Total (total peptides) [2]: 7; Unique (unique peptides) [2]: 6; Total (peptides) [3]: 7; Unique (peptides) [3]: 7 |
| B5 | 3 | 2 |  |  | Total (total peptides) [4]: 1; Unique (unique peptides) [4]: 1 |
| B6 | 3 | 2 |  |  |  |
| B7 | 2 | 2 |  |  | Total (total peptides) [4]: 2; Unique (unique peptides) [4]: 2; Total (peptides) [5]: 1; Unique (peptides) [5]: 1 |
| B8 | 2 | 2 |  |  |  |
